Measured values taken from the supplement of paper PMC11060735.
Structures can show the parent of a compound that is named as a salt. ± gives the standard deviation of the averaged measurements. In all, about 1,800 compounds were measured (“GFP- (p16Ink4a-) cell count relative to negative-control wells”: median about 0.99, lowest 2% from about 0.5 on). The list shows a part of the results.

These molecules were tested on mouse p16Ink4a+/- lung fibroblasts (INKBRITE, bleomycin-injured) (assay: GFP- (p16Ink4a-) cell count relative to negative-control wells (fold of vehicle); higher = more p16Ink4a- cells surviving). Settings: 1 µM; 3 days.

SMILES | GFP-
C[C@H](Oc1cc(-c2cnn(C3CCNCC3)c2)cnc1N)c1c(Cl)ccc(F)c1Cl [(S)-crizotinib] | 1.08
NC(=O)N/N=C/c1ccc([N+](=O)[O-])o1 [Nitrofural] | 0.939
O=C(/C=C/c1ccc(O)c(O)c1)c1ccc(O)cc1O [Butein] | 0.832
CCNC(=O)Nc1ccc(-c2nc3c(c(N4CCOC[C@@H]4C)n2)CCN(C2COC2)C3)cc1 | 0.69
COc1ccc2c(c1)c(CC(=O)OCC(=O)O)c(C)n2C(=O)c1ccc(Cl)cc1 [Acemetacin] | 1.16
CS(=O)c1ccc(-c2nc(-c3ccc(F)cc3)c(-c3ccncc3)[nH]2)cc1 (configuration not stated) | 1.18
O=C(c1cncc(Br)c1)N1CCC(N2CCCC2)CC1 | 0.924 ± 0.13
CN(Cc1cc(Br)cc(Br)c1N)C1CCCCC1 [Bromhexine] | 1.04
CN(C)CCc1c[nH]c2ccc(C[C@H]3COC(=O)N3)cc12 [Zolmitriptan] | 0.998
O=C(O)C(O)Cc1ccc(O)c(O)c1 (configuration not stated) [Sodium Danshensu] | 1.19
CCN1CCN(C(=O)N[C@@H](C(=O)N[C@@H]2C(=O)N3C(C(=O)O)=C(CSc4nnnn4C)CS[C@H]23)c2ccc(O)cc2)C(=O)C1=O [Cefoperazone sodium salt] | 1.04
CNc1ncnc2c1ncn2[C@@H]1O[C@H](CO)[C@@H](O)[C@H]1O [N6-methyladenosine] | 1.04
O=c1c(-c2ccc(O)cc2)coc2cc(O)cc(O)c12 [Genistein] | 1.03
CC(C)(O)CC[C@@H](O)[C@](C)(O)[C@H]1CC[C@@]2(O)C3=CC(=O)[C@@H]4C[C@@H](O)[C@@H](O)C[C@]4(C)[C@H]3CC[C@]12C [20-Hydroxyecdysone] | 1.08
O=C(Nc1ccc(OC(F)(F)F)cc1)c1sccc1NCc1ccnc2ccccc12 | 0.964
Cc1nn(-c2ccccc2)c(C)c1/C=N/N1CCN(Cc2ccccc2)CC1 | 1.01
CCOc1nc2cccc(C(=O)OCc3oc(=O)oc3C)c2n1Cc1ccc(-c2ccccc2-c2noc(O)n2)cc1 [Azilsartan medoxomil] | 1.11
CC(C)Cc1ccc(C(C)C(=O)O)cc1 (racemic) | 0.966
Cc1cn(-c2cc(NC(=O)c3ccc(C)c(Nc4nccc(-c5cccnc5)n4)c3)cc(C(F)(F)F)c2)cn1 [Nilotinib] | 1.14
C=CC(=O)Nc1cccc(Oc2nc(Nc3ccc(N4CCN(C)CC4)cc3)ncc2Cl)c1 | 0.844
OC(CN1CCN(c2cccc(Cl)c2)CC1)C(c1ccccc1)c1ccccc1 (configuration not stated) | 1.09
OC[C@@H](O)[C@@H](O)[C@H](O)[C@@H](O)CO [Sorbitol] | 1.06
CC1=C(C(=O)O)N2C(=O)[C@@H](NC(=O)[C@H](N)c3ccccc3)[C@H]2SC1 [Cephalexin] | 0.858
CCc1cncnc1N1CCN(Cc2nc3cc(C(F)(F)F)ccc3[nH]2)CC1 | 0.963

Not a retest: entries from further up.
SMILES | GFP-
CN(C)CCc1c[nH]c2ccc(C[C@H]3COC(=O)N3)cc12 [Zolmitriptan] | 0.998
O=C(O)C(O)Cc1ccc(O)c(O)c1 (configuration not stated) [Sodium Danshensu] | 1.19
CCN1CCN(C(=O)N[C@@H](C(=O)N[C@@H]2C(=O)N3C(C(=O)O)=C(CSc4nnnn4C)CS[C@H]23)c2ccc(O)cc2)C(=O)C1=O [Cefoperazone sodium salt] | 1.04

The list continues.

SMILES | GFP-
Nc1ccc(-c2ccc3ncc4ccc(=O)n(-c5cccc(C(F)(F)F)c5)c4c3c2)cn1 [Torin 2] | 0.456
Cc1cccc(Nc2cc(Cl)nc(SCC(=O)O)n2)c1C [Pirinixic Acid] | 1.03
COC1=C2C[C@@H](C)C[C@H](OC)[C@H](O)[C@@H](C)/C=C(\C)[C@H](OC(N)=O)[C@@H](OC)/C=C/C=C(\C)C(=O)/N=C(/C=C1O)C2=O [Geldanamycin] | 0.879
COc1cc2c(cc1OC)-c1cc3ccc(OC)c(OC)c3c[n+]1CC2 [Palmatine] | 0.986
NC(=O)N1CCC(CC(=O)N2CCC([C@H]3c4ncc(Br)cc4CCc4cc(Cl)cc(Br)c43)CC2)CC1 [Lonafarnib] | 0.808
CC(C[N+](C)(C)C)OC(N)=O (configuration not stated) [Bethanechol] | 0.993
O=C1C(O)=C(O)O[C@@H]1[C@@H](O)CO [Vitamin C] | 1.11
CC1(C)CNc2cc(NC(=O)c3cccnc3NCc3ccncc3)ccc21 [Motesanib Diphosphate] | 1.02
OC[C@H]1O[C@@H](OCCc2ccc(O)cc2)[C@H](O)[C@@H](O)[C@@H]1O [Salidroside] | 1.15
O=S(=O)(O)Oc1ccc(C(c2ccc(OS(=O)(=O)O)cc2)c2ccccn2)cc1 [Picosulfuric acid] | 0.991
CC[C@H]1OC(=O)[C@H](C)[C@@H](O[C@H]2C[C@@](C)(OC)[C@@H](O)[C@H](C)O2)[C@H](C)[C@@H](O[C@H]2O[C@H](C)C[C@H](N(C)C)[C@H]2O)[C@](C)(O)C[C@@H](C)CN(C)[C@H](C)[C@@H](O)[C@]1(C)O [Azithromycin] | 0.865
CC1(C)O[C@@H]2C[C@H]3[C@@H]4CCC5=CC(=O)C=C[C@]5(C)[C@@]4(F)[C@@H](O)C[C@]3(C)[C@]2(C(=O)CO)O1 [Triamcinolone Acetonide] | 0.946
COc1cc2nccc(Oc3ccc(NC(=O)Nc4ccc(F)cc4F)c(F)c3)c2cc1OC | 0.466
[NH2][Pt]([NH2])([Cl])[Cl] [Cisplatin] | 1.05
CC(=O)N[C@H]1[C@H]([C@H](O)[C@H](O)CO)OC(C(=O)O)=C[C@@H]1NC(=N)N [Zanamivir] | 0.924
Cc1ccc(CNc2ncnc3ccc(-c4ccc(CO)o4)cc23)o1 | 0.793
C[C@@H](NCCCc1cccc(C(F)(F)F)c1)c1cccc2ccccc12 [Cinacalcet] | 1.22
CN1CCN(C2CCN(C(=O)Nc3cc(Oc4ccc(NC(=O)C5(C(=O)Nc6ccc(F)cc6)CC5)c(F)c4)ccn3)CC2)CC1 [Golvatinib] | 0.852
C[C@@H]1O[C@@H](OC[C@H]2O[C@@H](Oc3c(-c4ccc(OCCO)c(OCCO)c4)oc4cc(OCCO)cc(O)c4c3=O)[C@H](O)[C@@H](O)[C@@H]2O)[C@H](O)[C@H](O)[C@H]1O [Troxerutin] | 1.02
COc1cc(C=O)ccc1O [Vanillin] | 1.05
CN/C(=C/[N+](=O)[O-])NCCSCc1csc(CN(C)C)n1 [Nizatidine] | 1.02
Nc1nc(F)nc2c1ncn2[C@@H]1O[C@H](COP(=O)(O)O)[C@@H](O)[C@@H]1O [Fludarabine Phosphate] | 1.1
CCN1CCCC1CNC(=O)c1cc(S(=O)(=O)CC)c(N)cc1OC (configuration not stated) [Amisulpride] | 1.03
